Assay results taken from the supplement of paper PMC10849652.
Some of the results follow.

Protein sequences, listed by entry. Tags and fused reporters are not part of them. Lines headed by an entry give the natural chain unless they say otherwise; changes in a name come on top.
UniProt Q9UID3: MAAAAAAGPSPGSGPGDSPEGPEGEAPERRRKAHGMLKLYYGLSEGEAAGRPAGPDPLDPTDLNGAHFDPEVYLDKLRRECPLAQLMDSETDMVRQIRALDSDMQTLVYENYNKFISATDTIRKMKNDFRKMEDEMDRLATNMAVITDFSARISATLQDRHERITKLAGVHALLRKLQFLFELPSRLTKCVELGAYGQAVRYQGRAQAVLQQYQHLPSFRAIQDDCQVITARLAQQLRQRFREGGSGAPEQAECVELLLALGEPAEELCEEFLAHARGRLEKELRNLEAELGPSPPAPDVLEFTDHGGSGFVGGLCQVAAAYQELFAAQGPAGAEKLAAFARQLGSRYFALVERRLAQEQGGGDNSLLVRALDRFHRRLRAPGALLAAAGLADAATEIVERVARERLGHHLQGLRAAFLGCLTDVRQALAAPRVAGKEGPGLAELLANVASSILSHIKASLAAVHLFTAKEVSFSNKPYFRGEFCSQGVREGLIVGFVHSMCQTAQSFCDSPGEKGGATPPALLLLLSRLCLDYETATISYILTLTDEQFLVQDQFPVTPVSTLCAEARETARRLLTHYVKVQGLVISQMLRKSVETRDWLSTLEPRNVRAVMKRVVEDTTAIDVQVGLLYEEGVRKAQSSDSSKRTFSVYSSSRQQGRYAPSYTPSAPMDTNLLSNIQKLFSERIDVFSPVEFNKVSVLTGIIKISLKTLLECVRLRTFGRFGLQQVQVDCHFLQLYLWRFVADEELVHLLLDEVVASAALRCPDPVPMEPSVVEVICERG
UniProt Q8TBZ3: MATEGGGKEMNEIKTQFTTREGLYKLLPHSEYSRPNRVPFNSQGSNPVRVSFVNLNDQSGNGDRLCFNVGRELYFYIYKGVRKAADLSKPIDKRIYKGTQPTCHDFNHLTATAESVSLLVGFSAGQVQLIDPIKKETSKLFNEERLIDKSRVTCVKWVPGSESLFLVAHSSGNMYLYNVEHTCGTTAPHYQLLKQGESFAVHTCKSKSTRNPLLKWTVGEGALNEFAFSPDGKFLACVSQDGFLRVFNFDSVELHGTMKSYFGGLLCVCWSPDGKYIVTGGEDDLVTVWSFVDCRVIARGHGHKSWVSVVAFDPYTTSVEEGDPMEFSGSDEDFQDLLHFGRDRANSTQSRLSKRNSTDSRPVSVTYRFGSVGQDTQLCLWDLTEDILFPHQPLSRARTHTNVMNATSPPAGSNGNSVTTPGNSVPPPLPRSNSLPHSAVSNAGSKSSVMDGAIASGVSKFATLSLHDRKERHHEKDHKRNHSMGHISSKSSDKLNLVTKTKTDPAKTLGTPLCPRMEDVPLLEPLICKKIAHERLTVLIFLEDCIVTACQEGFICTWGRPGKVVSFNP
UniProt Q96JC1: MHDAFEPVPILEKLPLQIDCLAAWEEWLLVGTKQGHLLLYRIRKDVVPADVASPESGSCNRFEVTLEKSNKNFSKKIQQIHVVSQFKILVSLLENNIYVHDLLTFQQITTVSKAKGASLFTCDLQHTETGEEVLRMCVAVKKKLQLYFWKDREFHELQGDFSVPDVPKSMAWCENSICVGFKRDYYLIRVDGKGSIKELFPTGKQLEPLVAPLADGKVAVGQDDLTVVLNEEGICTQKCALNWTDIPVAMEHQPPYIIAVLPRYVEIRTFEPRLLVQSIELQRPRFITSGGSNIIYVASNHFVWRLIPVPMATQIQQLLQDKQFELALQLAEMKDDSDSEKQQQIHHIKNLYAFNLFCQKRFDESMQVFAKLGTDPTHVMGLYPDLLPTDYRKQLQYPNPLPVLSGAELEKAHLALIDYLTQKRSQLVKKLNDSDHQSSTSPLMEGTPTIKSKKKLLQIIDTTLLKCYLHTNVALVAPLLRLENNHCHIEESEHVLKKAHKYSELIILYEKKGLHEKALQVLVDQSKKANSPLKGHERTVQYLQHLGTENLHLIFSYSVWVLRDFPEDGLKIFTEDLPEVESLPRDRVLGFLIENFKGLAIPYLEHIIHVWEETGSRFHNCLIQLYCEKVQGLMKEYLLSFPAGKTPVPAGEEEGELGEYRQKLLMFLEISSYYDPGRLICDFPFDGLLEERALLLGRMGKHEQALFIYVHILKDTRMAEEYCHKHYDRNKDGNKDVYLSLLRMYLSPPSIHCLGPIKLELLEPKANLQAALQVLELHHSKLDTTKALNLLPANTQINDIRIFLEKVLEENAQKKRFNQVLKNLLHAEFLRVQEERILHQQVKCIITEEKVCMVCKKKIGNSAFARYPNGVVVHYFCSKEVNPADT
UniProt Q9Y484: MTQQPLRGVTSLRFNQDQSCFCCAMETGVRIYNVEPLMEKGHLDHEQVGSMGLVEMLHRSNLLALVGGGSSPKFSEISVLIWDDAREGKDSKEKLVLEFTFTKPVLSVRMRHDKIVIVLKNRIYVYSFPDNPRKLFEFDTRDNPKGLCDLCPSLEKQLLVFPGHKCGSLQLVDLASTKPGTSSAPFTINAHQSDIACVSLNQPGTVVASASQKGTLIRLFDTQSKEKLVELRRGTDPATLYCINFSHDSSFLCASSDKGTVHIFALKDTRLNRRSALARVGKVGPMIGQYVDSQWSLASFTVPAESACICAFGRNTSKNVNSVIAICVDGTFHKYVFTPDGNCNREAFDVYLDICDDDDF
UniProt Q96AX1: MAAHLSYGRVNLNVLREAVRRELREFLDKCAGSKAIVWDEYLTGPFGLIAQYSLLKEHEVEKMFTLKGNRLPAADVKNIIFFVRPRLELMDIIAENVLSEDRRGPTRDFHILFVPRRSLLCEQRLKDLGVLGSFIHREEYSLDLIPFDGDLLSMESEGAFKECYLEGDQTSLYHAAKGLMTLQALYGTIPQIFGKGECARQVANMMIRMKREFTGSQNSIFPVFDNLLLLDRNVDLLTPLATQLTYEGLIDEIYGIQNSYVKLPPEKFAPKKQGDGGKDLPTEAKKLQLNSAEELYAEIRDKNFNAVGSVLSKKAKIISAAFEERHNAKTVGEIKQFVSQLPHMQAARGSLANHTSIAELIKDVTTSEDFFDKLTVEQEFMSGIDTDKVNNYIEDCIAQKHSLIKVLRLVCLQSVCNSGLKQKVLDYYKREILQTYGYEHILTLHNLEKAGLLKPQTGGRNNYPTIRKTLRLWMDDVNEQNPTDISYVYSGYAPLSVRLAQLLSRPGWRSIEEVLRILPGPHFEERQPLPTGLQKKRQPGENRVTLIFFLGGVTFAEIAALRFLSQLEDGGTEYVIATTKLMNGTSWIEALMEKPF
UniProt Q8NI36: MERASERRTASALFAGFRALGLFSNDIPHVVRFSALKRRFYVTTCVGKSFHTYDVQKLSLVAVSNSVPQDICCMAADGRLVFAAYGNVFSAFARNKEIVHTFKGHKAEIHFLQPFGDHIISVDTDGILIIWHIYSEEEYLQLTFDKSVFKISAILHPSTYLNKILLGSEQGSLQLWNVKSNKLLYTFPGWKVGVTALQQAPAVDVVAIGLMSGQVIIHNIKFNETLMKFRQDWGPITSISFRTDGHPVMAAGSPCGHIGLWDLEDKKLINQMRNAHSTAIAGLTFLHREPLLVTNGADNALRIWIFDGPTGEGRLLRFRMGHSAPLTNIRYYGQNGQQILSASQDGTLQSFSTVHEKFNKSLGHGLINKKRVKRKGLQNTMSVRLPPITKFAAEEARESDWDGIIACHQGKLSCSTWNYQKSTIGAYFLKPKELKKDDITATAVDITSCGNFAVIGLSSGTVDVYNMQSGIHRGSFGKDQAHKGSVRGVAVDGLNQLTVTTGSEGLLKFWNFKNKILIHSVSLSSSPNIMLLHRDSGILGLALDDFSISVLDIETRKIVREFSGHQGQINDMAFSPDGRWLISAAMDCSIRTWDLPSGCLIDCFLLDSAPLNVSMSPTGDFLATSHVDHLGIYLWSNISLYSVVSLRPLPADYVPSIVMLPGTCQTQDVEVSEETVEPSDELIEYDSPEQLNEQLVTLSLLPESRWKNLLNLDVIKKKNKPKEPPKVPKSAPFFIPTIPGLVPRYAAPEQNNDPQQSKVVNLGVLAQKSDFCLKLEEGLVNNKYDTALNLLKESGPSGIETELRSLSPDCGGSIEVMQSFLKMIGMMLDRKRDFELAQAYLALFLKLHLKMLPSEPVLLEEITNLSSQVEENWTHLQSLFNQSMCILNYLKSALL
UniProt Q14191, whole entry, looked up: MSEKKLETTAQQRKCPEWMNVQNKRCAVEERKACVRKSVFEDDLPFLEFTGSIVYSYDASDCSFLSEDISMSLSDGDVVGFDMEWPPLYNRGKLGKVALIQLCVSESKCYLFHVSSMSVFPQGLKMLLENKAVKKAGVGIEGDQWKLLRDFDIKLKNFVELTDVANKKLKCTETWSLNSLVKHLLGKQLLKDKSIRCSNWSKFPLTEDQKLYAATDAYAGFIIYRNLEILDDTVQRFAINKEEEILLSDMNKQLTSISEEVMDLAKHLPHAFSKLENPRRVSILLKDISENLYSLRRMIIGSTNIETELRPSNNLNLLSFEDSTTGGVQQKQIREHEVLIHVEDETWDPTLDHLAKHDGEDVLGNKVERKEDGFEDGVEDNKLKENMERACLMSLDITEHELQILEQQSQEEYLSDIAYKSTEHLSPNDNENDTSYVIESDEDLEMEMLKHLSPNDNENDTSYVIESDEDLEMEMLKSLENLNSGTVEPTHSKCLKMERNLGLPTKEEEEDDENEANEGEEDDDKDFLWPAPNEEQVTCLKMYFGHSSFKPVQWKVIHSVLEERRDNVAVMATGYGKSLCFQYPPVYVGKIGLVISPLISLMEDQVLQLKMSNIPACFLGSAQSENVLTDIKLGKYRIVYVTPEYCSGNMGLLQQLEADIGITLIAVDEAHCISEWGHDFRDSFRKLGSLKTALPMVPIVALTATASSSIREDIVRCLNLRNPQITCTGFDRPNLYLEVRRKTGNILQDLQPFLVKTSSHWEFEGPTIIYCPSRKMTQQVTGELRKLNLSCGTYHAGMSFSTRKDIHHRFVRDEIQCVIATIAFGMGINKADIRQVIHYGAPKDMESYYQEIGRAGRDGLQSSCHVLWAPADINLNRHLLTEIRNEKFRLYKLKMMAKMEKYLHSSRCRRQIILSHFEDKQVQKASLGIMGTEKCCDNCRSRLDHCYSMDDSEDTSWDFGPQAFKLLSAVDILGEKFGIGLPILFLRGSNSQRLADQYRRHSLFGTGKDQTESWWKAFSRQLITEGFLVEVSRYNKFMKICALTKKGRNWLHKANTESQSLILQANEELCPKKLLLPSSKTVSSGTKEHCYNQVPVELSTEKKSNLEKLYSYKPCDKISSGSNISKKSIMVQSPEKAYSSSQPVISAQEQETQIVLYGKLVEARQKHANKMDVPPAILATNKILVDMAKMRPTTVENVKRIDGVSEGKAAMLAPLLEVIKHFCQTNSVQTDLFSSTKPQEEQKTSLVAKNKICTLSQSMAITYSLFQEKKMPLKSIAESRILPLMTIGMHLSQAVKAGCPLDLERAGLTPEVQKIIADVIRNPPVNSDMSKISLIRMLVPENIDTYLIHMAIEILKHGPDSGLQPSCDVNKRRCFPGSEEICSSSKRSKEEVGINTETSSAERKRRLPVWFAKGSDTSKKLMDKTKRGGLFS
UniProt Q6PJI9: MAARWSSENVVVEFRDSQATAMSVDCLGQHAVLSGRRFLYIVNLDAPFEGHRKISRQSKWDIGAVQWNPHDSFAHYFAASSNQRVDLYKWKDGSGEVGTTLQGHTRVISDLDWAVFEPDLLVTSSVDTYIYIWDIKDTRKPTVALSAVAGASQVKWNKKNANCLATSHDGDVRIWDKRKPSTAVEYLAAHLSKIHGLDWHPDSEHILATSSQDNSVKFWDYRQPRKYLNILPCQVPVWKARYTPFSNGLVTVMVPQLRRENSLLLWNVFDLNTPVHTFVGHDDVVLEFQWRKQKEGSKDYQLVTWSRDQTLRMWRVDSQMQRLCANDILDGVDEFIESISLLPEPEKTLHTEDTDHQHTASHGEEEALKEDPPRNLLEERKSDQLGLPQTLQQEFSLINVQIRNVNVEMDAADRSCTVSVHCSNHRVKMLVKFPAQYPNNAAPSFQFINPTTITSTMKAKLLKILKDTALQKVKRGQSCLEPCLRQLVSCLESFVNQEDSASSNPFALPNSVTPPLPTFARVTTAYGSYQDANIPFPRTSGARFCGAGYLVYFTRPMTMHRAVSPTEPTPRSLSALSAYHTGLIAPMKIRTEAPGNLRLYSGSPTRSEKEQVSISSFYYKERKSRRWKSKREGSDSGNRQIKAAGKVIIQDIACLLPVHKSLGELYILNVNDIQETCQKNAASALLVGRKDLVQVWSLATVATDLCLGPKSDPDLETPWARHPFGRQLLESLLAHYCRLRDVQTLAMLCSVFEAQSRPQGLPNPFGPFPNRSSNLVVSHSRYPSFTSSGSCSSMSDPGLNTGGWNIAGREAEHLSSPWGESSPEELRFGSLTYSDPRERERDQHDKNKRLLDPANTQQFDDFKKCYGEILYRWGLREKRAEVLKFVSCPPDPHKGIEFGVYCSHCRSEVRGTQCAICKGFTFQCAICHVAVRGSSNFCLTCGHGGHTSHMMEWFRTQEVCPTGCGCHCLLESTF

Legend:
Test in all cases: log2 fold change, soluble protein after heating vs DMSO (PISA); higher = thermal stabilisation; K562 lysate, 10 uM; active = over 0.2 and 3.5 SD of the protein, either way, in both replicates (recomputed)
lapatinib = compound: CS(=O)(=O)CCNCc1ccc(-c2ccc3ncnc(Nc4ccc(OCc5cccc(F)c5)c(Cl)c4)c3c2)o1 [lapatinib]
How it was run: (§1)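 K562 pellets were dounce-homogenised in PBS pH 7.4 containing 1 mM MgCl2, and the crude extract, at 1 mg/mL protein, was exposed to 10 μM compound for 30 min. Aliquots were heated for 3 min across 48°C-58°C, pooled, brought to 0.5% NP-40 at 4°C and spun at 21,000xg for 90 min, with the supernatant taken as soluble protein. TMTpro 16plex LC-MS/MS with equalised channel sums quantified that protein. Values are log-two fold changes in thermal stability relative to solvent controls, taken from duplicates.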

pictilisib = compound: CS(=O)(=O)N1CCN(Cc2cc3nc(-c4cccc5[nH]ncc45)nc(N4CCOCC4)c3s2)CC1 [pictilisib]
How it was run: as §1

crizotinib = compound: C[C@@H](Oc1cc(-c2cnn(C3CCNCC3)c2)cnc1N)c1c(Cl)ccc(F)c1Cl [crizotinib]
How it was run: as §1

[1] = compound: C[C@H](C1=CC=C(C=C1)C(=O)NC2=C3C=CNC3=NC=C2)N
How it was run: as §1

duvelisib = compound: C[C@H](Nc1ncnc2nc[nH]c12)c1cc2cccc(Cl)c2c(=O)n1-c1ccccc1 [duvelisib]
How it was run: as §1

gandotinib = compound: Cc1cc(Nc2cc(CN3CCOCC3)c3nc(C)c(Cc4ccc(Cl)cc4F)n3n2)n[nH]1 [gandotinib]
How it was run: as §1

tozasertib = compound: Cc1cc(Nc2cc(N3CCN(C)CC3)nc(Sc3ccc(NC(=O)C4CC4)cc3)n2)n[nH]1 [tozasertib]
How it was run: as §1

doramapimod = compound: Cc1ccc(-n2nc(C(C)(C)C)cc2NC(=O)Nc2ccc(OCCN3CCOCC3)c3ccccc23)cc1 [doramapimod]
How it was run: as §1

bafetinib = compound: Cc1ccc(NC(=O)c2ccc(CN3CC[C@H](N(C)C)C3)c(C(F)(F)F)c2)cc1Nc1nccc(-c2cncnc2)n1 [bafetinib]
How it was run: as §1

[2] = compound: Cc1cccc(CC(=O)N2CCc3c2ccc(-c2cn(C)c4ncnc(N)c24)c3F)n1
How it was run: as §1

Row | Target | log2 fold change (lapatinib) | log2 fold change (pictilisib) | log2 fold change (crizotinib) | log2 fold change [1] | log2 fold change (duvelisib) | log2 fold change (gandotinib) | log2 fold change (tozasertib) | log2 fold change (doramapimod) | log2 fold change (bafetinib) | log2 fold change [2]
1 | VPS51 (UniProt Q9UID3) | inactive: -0.034 | inactive: -0.043 | inactive: 0.019 | inactive: 0.118 | inactive: 0.016 | inactive: -0.11 | inactive: -0.009 | inactive: -0.065 | inactive: -0.095 | inactive: -0.022
2 | WDR20 isoform 7 (UniProt Q8TBZ3) | inactive: 0.015 | inactive: -0.006 | inactive: -0.069 | active: -0.416 | inactive: 0.043 | inactive: -0.009 | inactive: 0 | inactive: -0.022 | inactive: 0.07 | inactive: 0.081
3 | VPS39 (UniProt Q96JC1) | inactive: -0.018 | inactive: -0.018 | inactive: -0.066 | active: 0.603 | inactive: 0.015 | inactive: -0.169 | inactive: 0.021 | inactive: 0.015 | inactive: -0.045 | inactive: -0.229
4 | WDR45 isoform 2 (UniProt Q9Y484) | inactive: -0.002 | inactive: -0.011 | inactive: -0.048 | active: -0.229 | inactive: -0.04 | inactive: -0.051 | inactive: -0.025 | inactive: 0.054 | inactive: -0.047 | inactive: 0.179
5 | WDR61 (UniProt Q9GZS3) | inactive: -0.01 | inactive: -0.002 | inactive: -0.041 | inactive: 0.019 | inactive: 0.048 | inactive: 0.004 | inactive: 0.001 | inactive: 0.02 | inactive: 0.054 | inactive: -0.028
6 | VPS33A (UniProt Q96AX1) | inactive: 0 | inactive: -0.005 | inactive: -0.025 | inactive: -0.03 | inactive: 0.039 | inactive: -0.043 | inactive: 0.01 | inactive: 0 | inactive: 0.014 | inactive: 0.036
7 | VTI1A (UniProt Q96AJ9) | inactive: 0.141 | inactive: 0.003 | inactive: -0.04 | inactive: 0.029 | inactive: -0.027 | inactive: -0.06 | inactive: -0.005 | inactive: 0 | inactive: -0.011 | inactive: -0.042
8 | WDR36 (UniProt Q8NI36) | inactive: 0.013 | inactive: -0.008 | inactive: -0.02 | inactive: 0.024 | inactive: 0.016 | inactive: -0.097 | inactive: 0.017 | inactive: 0.061 | inactive: 0.005 | inactive: -0.004
9 | WDR48 (UniProt Q8TAF3) | inactive: 0.046 | inactive: 0.023 | inactive: 0.019 | inactive: -0.096 | inactive: 0.003 | inactive: 0.059 | inactive: 0 | inactive: 0.009 | inactive: 0.01 | inactive: 0.037
10 | WASHC3 (UniProt Q9Y3C0) | inactive: 0.002 | inactive: -0.002 | inactive: 0.015 | inactive: -0.014 | inactive: 0.051 | inactive: 0.029 | inactive: -0.016 | inactive: 0.002 | inactive: 0.012 | inactive: -0.003
11 | WARS1 (UniProt G3V456) | inactive: 0.131 |  |  |  |  |  |  |  |  | 
12 | VTI1B (UniProt Q9UEU0) | inactive: 0.034 | inactive: -0.017 | inactive: 0.034 | inactive: -0.04 | inactive: -0.044 | inactive: -0.003 | inactive: -0.018 | inactive: 0.041 | inactive: -0.019 | inactive: 0.037
13 | WRN (UniProt Q14191) | inactive: -0.008 | inactive: 0.006 | inactive: -0.031 | inactive: -0.042 | inactive: -0.034 | inactive: -0.008 | inactive: 0.037 | inactive: 0.02 | inactive: -0.064 | inactive: 0.073
14 | VPS13D (UniProt Q5THJ4) | inactive: -0.071 | inactive: 0.002 | inactive: -0.062 | inactive: -0.039 | inactive: -0.028 | inactive: -0.115 | inactive: 0.054 | inactive: 0.103 | inactive: 0.01 | inactive: 0.157
15 | WDR59 (UniProt Q6PJI9) | inactive: 0.01 | inactive: -0.021 | inactive: -0.021 | inactive: -0.043 | inactive: 0.024 | inactive: -0.05 | inactive: -0.041 | inactive: 0 | inactive: 0.012 | inactive: 0.002

From no. 2 to 3, copied from above:
Row | Target | log2 fold change (lapatinib) | log2 fold change (pictilisib) | log2 fold change (crizotinib) | log2 fold change [1] | log2 fold change (duvelisib) | log2 fold change (gandotinib) | log2 fold change (tozasertib) | log2 fold change (doramapimod) | log2 fold change (bafetinib) | log2 fold change [2]
2 | WDR20 isoform 7 (UniProt Q8TBZ3) | inactive: 0.015 | inactive: -0.006 | inactive: -0.069 | active: -0.416 | inactive: 0.043 | inactive: -0.009 | inactive: 0 | inactive: -0.022 | inactive: 0.07 | inactive: 0.081
3 | VPS39 (UniProt Q96JC1) | inactive: -0.018 | inactive: -0.018 | inactive: -0.066 | active: 0.603 | inactive: 0.015 | inactive: -0.169 | inactive: 0.021 | inactive: 0.015 | inactive: -0.045 | inactive: -0.229
